# Percent effect of library compounds

The values are deposited in ChEMBL (CHEMBL3988442, “University of Dundee, Small-Polar-MMV Screening Library” (2021)).

Values are the deposited “Percent Effect”, in %.
The record does not define 0% and 100%; most values in the screen are far below 50% and negative numbers occur (in some assays of this library far below -100).
Compounds were drawn at random from those tested, without regard to their results.
A dash means the value is not listed here; it may have been measured.

T. brucei: 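Whole-parasite assay of Trypanosoma brucei over 72 hours; the read-out is not stated. Concentration: 30 µM. The record gives no direction; compounds that gave an IC50 in retests scored well above the rest, so higher reads as stronger inhibition. Values scatter widely below zero; nearly all retest evidence comes from the higher of the two concentrations used. Size under these conditions: about 64,000 compounds, about 940 of them at 50% or above in at least one test.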
Toxoplasma: 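Assay of Toxoplasma gondii numbers, read through their beta-galactosidase reporter with a colour substrate. Concentration: 10 µM. The record gives no direction; the compounds picked for IC50 retests had high values, so higher reads as fewer parasites. Of about 67,000 compounds tested this way, about 260 (0.38%) reached 50% or more in at least one test.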

compound | T. brucei | Toxoplasma
CCOCc1ccc(CNc2cncc(-n3cccn3)n2)cc1 | - | 14.49
Cc1c(Cl)cccc1N1CC(c2nnc(N)s2)CC1=O (stereo not shown) | -19.27 | 0.4577
O=C1NC2(CCCN(C(=O)CCn3cccn3)C2)Oc2ccccc21 (stereo not shown) | -2.266 | -16.34
O=C(O)C(F)(F)F.[H][C@@]12CCCO[C@]1([H])[C@H](NC(=O)c1cnn(C)c1)CN2CC1CCOCC1 | 6.211 | 15.83
CNC(=O)CC1CCN(C(=O)NCc2cn3c(C)cccc3n2)CC1 | -2.2 | -0.3958
COc1ccc(S(=O)(=O)N2CCCC3(CCCN3S(C)(=O)=O)C2)cc1 (stereo not shown) | -87.55 | 1.861
CCC(CC)NC(=O)Cn1cc(-c2ccccc2)cn1 | -10.43 | -8.82
Cc1nn2c(N3CCC(O)CC3)cc(-c3ccccc3)nc2c1C | -4.868 | 6.577
Cc1cnn(CC2CCCN2Cc2nc(C)c3ccccc3n2)c1 (stereo not shown) | 99.14 | -8.851
COC(=O)c1ccc(OCCn2cnc(C#N)n2)cc1 | -41.72 | 4.016
Cc1cc(NC(=O)CO)nn1-c1ccc(Cl)cc1Cl | 0.04098 | -5.445
COc1c(F)cccc1C(=O)NC(C)c1cnn(C)c1 (stereo not shown) | -21.74 | 4.909
O=C(O)C(F)(F)F.[H][C@@]12CN(Cc3cccc(C)c3)C[C@]1([H])OCCN2c1ccnc(N(C)C)n1 | -12.68 | -14.55
COCCO[C@H]1CCN(C(=O)c2ccco2)[C@H]1Cc1cnn(C)c1 | -18.17 | 3.644
O=C(O)C(F)(F)F.O=C(O)C(F)(F)F.[H][C@@]12CCN(C(=O)C3CC3)C[C@]1([H])[C@@H](CN(C)Cc1cccnc1)OC2 | -0.08816 | -7.822
COc1ccc(C(C(=O)O)N2CCC(O)(c3cccnc3)CC2)cc1Cl (stereo not shown) | 6.399 | 0.6112
COc1ccc(CNC(=O)Nc2cccnc2N2CCCC2)cc1O | 51.01 | 8.558
Cc1ccc(CN2CCc3c(C(=O)N(C)C)nn(C)c3C2)s1.O=C(O)C(F)(F)F | 30.09 | 11.74
CS(=O)(=O)Nc1nn(Cc2ccc(F)cc2)cc1Br | -27.64 | 62.42
NC(=O)CC1CCN(c2cncc(OCc3ccccc3)n2)CC1 | 4.633 | 1.698
Cc1cc(C)cc(NC(=O)CC2CN(Cc3ccccc3)CCO2)c1 (stereo not shown) | -2.004 | 10.33
Cc1occc1C(=O)N1CCC2(CCN(C(=O)c3cccnc3)C2)CC1.O=C(O)C(F)(F)F | -37.63 | -5.694
CC(C)(C)NS(=O)(=O)c1cc(NC(=O)C2CC2)ccc1F | -2.673 | -13.87
CCCc1nnc(NCc2ccc(OC)c(C#N)c2)o1 | -16.95 | -
CC(C(=O)N(C)Cc1nnc2n1CCC2)S(C)(=O)=O (stereo not shown) | -60.6 | 1.618
[H][C@]12CC[C@]([H])(CN(Cc3cscn3)C1)N(C(=O)c1cccn1C)C2 | 11.7 | -2.238
C1CCC(OCCN2CCN(CCOC3CCCCC3)CC2)CC1 | -55.55 | -3.567
O=C(Cn1cc(Cl)cn1)N1CCCC(c2cc3ccccc3cn2)C1 (stereo not shown) | 37.66 | -3.529
Cc1ccc(Nc2cc(N3CCN(S(C)(=O)=O)CC3)nc(C)n2)cc1 | 3.112 | -37.15
CC(C)c1ncc2c(n1)CN(Cc1nc(-c3ccsc3)no1)CC2 | 13.68 | -4.733
Cc1nc2c(c(N3CCC(O)(Cn4ccnc4)CC3)n1)CCNCC2 | -9.87 | -21.42
O=C(O)C(F)(F)F.O=C(O)C(F)(F)F.[H][C@@]12OCCN(Cc3ccoc3)[C@@]1([H])CC[C@H]2OCc1ccncc1 | - | 3.389
N#Cc1cc(NS(=O)(=O)c2cc(C(=O)O)cc(Cl)c2Cl)ccc1F | -9.843 | -0.2014
CCOC(=O)c1ccc(CNC(=O)c2ccc(C)nc2)o1 | -15.02 | -3.048
O=C(O)C(F)(F)F.O=C(O)C(F)(F)F.[H][C@@]12CN(Cc3cccs3)C[C@]1([H])OCCN2CC1CCCO1 (stereo partly shown) | 14.96 | 14.63
Cc1cc(C)n(-c2ccc(N3CCC4(CC3)OCC(C)O4)nc2)n1 (stereo not shown) | -20.76 | 2.875
O=C(O)C(F)(F)F.[H][C@@]12CCN(c3cnccn3)C[C@]1([H])CN(C(=O)CC)C2 | -93.37 | 0.6511
Cc1cc(F)ccc1S(=O)(=O)NCC(O)c1cccn1C (stereo not shown) | 2.147 | 4.762
CC(C)(C)c1cnc(CNc2cccc(Cn3cnnc3)c2)o1 | 8.784 | -0.9451
CC(C)N(C)Cc1cnc2n1CCN(CCc1ccccc1)C2.O=C(O)C(F)(F)F.O=C(O)C(F)(F)F | 55.49 | -1.036
CC1CCN(CCCNC(=O)NC(C)c2nncn2C)CC1 (stereo not shown) | -9.107 | -3.35
N#Cc1cccc(CNC(=O)NC2CCN(CC(F)F)CC2)c1 | -26.73 | 0.7536
N#Cc1ncn(CCC(=O)Nc2cccc(Cl)c2)n1 | -60.87 | 9.455
CC(C)(CNCc1ccc(OCc2cscn2)cc1)C(N)=O.Cl | -23.1 | -2.582
Cn1cc(NC(=O)CNC(=O)N2CCN(c3cccc(Cl)c3)CC2)cn1 | 9.318 | -8.506
O=C(O)C(F)(F)F.O=C(O)C(F)(F)F.O=C(c1cnccn1)N1CCCC2(CCN(Cc3cccnc3)C2)C1 (stereo not shown) | -109.1 | 0.3944
NC(=O)c1cccc(CCNC(=O)N2CCCC2)c1 | -19.75 | -3.474
O=C(O)C(F)(F)F.[H][C@@]12CN(Cc3ccsc3)CCO[C@]1([H])CN(C(=O)C1CC(F)(F)C1)C2 | -17.95 | -7.64
CN1CCCN(S(=O)(=O)c2cn(C)cn2)c2cc(Cl)ccc21 | -21.08 | -4.413
CC(C)C(Sc1nnc(NC2CC2)s1)C(=O)NCc1cccnc1 (stereo not shown) | -3.129 | 19.18
O=C(O)C(F)(F)F.O=S(=O)(c1cccs1)N1Cc2nc(CN3CCCCC3)oc2C1 | 1.61 | 2.406
CN1CCCN(C(=O)c2nc3c(o2)CN(C(=O)c2cccnc2)C3)CC1.O=C(O)C(F)(F)F.O=C(O)C(F)(F)F | -8.86 | 14.2
Cc1cc(CN(C)C2CCCN(Cc3noc(C4CC4)n3)C2)on1 (stereo not shown) | 0.3795 | -4.01
CC(C)NC(=O)c1ccc2c(c1)C1(CCN(C(C)C)CC1)C(=O)N2.O=C(O)C(F)(F)F | -41.78 | -0.9655
COc1ccc(C)cc1CN1CCN(Cc2nccn2C)C(C)C1 (stereo not shown) | 0.4887 | -8.659
O=C(C1CC=CC1)N1CCC2(CCN(Cc3ccccn3)C2=O)C1.O=C(O)C(F)(F)F (stereo not shown) | -59.63 | 4.198
OCCNc1nccc(-c2c[nH]nc2-c2ccco2)n1 | 21.39 | 54.25

For reference, 5 entries once more:

Result for N#Cc1cccc(CNC(=O)NC2CCN(CC(F)F)CC2)c1 was T. brucei: -26.73%; Toxoplasma: 0.7536%.
Result for CS(=O)(=O)Nc1nn(Cc2ccc(F)cc2)cc1Br was T. brucei: -27.64%; Toxoplasma: 62.42%.
Result for CC1CCN(CCCNC(=O)NC(C)c2nncn2C)CC1 (stereo not shown) was T. brucei: -9.107%; Toxoplasma: -3.35%.
Result for NC(=O)CC1CCN(c2cncc(OCc3ccccc3)n2)CC1 was T. brucei: 4.633%; Toxoplasma: 1.698%.
Result for Cc1c(Cl)cccc1N1CC(c2nnc(N)s2)CC1=O (stereo not shown) was T. brucei: -19.27%; Toxoplasma: 0.4577%.